Experimental data reported in PMC5179943.
Results are given in words; binding and its absence hold for the method and conditions named.

Sequences of proteins named here, by UniProt entry; tags and fusion partners are left off. Residues count along the entry.
UniProt P02769, residues 25-607: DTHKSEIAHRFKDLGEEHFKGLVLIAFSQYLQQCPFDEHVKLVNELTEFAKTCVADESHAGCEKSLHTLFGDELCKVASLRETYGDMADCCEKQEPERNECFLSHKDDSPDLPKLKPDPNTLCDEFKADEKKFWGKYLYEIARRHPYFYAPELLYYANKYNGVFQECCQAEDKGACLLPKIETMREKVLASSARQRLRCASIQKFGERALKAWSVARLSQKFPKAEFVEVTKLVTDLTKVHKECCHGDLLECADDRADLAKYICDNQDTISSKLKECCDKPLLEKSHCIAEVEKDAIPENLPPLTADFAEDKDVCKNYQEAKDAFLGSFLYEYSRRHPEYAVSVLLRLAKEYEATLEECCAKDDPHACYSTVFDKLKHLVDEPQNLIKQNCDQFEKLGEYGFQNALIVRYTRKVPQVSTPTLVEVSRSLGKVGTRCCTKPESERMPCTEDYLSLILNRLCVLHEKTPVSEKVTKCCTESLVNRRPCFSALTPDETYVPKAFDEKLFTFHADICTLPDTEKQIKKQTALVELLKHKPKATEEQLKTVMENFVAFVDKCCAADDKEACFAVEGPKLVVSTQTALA
UniProt P10909, residues 23-449: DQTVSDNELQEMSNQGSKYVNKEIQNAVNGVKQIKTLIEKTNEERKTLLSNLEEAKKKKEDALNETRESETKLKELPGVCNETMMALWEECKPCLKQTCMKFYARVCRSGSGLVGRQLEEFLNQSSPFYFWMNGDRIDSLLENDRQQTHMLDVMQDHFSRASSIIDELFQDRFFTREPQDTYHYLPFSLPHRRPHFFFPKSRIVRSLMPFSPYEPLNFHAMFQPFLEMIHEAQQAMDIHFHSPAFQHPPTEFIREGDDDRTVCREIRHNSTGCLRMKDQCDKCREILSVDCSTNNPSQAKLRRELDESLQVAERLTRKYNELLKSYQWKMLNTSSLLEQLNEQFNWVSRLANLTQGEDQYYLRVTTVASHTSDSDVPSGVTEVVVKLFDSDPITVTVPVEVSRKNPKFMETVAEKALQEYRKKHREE

Key:
[1] = target: bovine serum albumin (BSA) (bovine) (UniProt P02769); test: ELISA; solid-phase binding; human PLXNA4 coated on MaxiSorp plates overnight in PBS, blocked in 4% BSA-PBS-T; increasing amounts of human CLU in 0.5% BSA-PBS-T, 10 min at 37 °C; detected with biotinylated anti-CLU antibody and streptavidin-HRP; average of three independent experiments; both …
ovalbumin = ovalbumin (UniProt P01012); test: as above

With “Mammalian-expressed, recombinant human CLU protein (from UniProt P10909 23-449) (ligand)” the binding [1] was “no binding” and the binding (ovalbumin) was “no binding”.
